Test system: primary HCC tissue samples
Assay: Identification and label-free LC-MS relative quantitation of HLA-presented peptides (presentation profiles/scores), HCC versus normal tissues
Set-up: species or system human; key to PeptidePresentation (presentation score): very highly over-presented on tumors compared to a panel of normal tissues (+++); highly over-presented on tumors compared to a panel of normal tissues (++); over-presented on tumors compared to a panel of normal tissues (+)
Conditions: for PeptidePresentation (presentation score): HCC tumors compared to a panel of normal tissues

| Substance | PeptidePresentation (presentation score) | over-presentation in HCC compared with normal tissues (FIG. 1 presentation profiles) |
| --- | --- | --- |
| 75 (KQMEPLHAV; listed as Homo sapiens) [compound 75] | + |  |
| 76 (LLADIGGDPFAA; listed as Homo sapiens) [compound 76] | +++ |  |
| 79 (LLLSTGYEA; listed as Homo sapiens) [compound 79] | +++ |  |
| 85 (RILPKVLEV; listed as Homo sapiens) [compound 85] | + |  |
| 98 (SLLSPEHLQYL; listed as Homo sapiens) [compound 98] | ++ |  |
| 107 (TLGQFYQEV; listed as Homo sapiens) [compound 107] | +++ |  |
| 108 (TLLKKISEA; listed as Homo sapiens) [compound 108] | +++ |  |
| 122 (YLSQAADGAKVL; listed as Homo sapiens) [compound 122] | +++ |  |
| 130 (ALDAGAVYTL; listed as Homo sapiens) [compound 130] | ++ |  |
| 146 (FLWTEQAHTV; listed as Homo sapiens) [compound 146] | + |  |
| 162 (RLMSALTQV; listed as Homo sapiens) [compound 162] | ++ |  |
| 163 (RLTESVLYL; listed as Homo sapiens) [compound 163] | ++ |  |
| 167 (SLAESSFDV; listed as Homo sapiens) [compound 167] | ++ |  |
| 168 (SLAVLVPIV; listed as Homo sapiens) [compound 168] | + |  |
| 171 (SLIPAVLTV; listed as Homo sapiens) [compound 171] | + |  |
| 174 (TLAELGAVQV; listed as Homo sapiens) [compound 174] | + |  |
| 188 (RYSAGWDAKF; listed as Homo sapiens) [compound 188] | + |  |
| 200 (AYLLQPSQF; listed as Homo sapiens) [compound 200] | +++ | over-presentation |
| 201 (AYVNTFHNI; listed as Homo sapiens) [compound 201] | +++ |  |
| 204 (KYRLTYAYF; listed as Homo sapiens) [compound 204] | ++ |  |
| 205 (VYGLQRNLL; listed as Homo sapiens) [compound 205] | + |  |
| 212 (VYGDVISNI; listed as Homo sapiens) [compound 212] | +++ |  |
| 219: peptide found in PLIN2 (gene looked up) (GVMAGDIYSV; listed as Homo sapiens) [compound 219] | + |  |
| 241 (FVLPLLGLHEA; listed as Homo sapiens) [compound 241] | ++ |  |
| 253 (RVPPPPQSV; listed as Homo sapiens) [compound 253] | + |  |
| 314 (YLAPFLRNV; listed as Homo sapiens) [compound 314] | + |  |
| 322 (ILYDIPDIRL; listed as Homo sapiens) [compound 322] | + |  |

From patent US10064926B2, “Peptides and combination of peptides for use in immunotherapy against hepatocellular carcinoma (HCC) and other cancers” (Immatics biotechnologies GmbH, priority 2014, dated 2018)
